Measured values: PubChem BioAssay AID1487 (National Center for Advancing Translational Sciences (NCATS), 2009)
Where “and” joins values, the source holds several entries; their conditions need not be identical. Equal entries are not always repeated. This is one part of the list. The main result of the screen is listed elsewhere. These columns were measured beside it and carry no call. Compounds called inactive in the main read-out are mostly missing here. Words in brackets tell the shape of the fitted curve; partial curves, single points and poor fits give uncertain potencies.

Test: qHTS Assay for Modulators of Lamin A Splicing
Conditions: HeLa LMNA splicing GFP/RFP minigene ratio, 48 h
Excerpt: NCGC Assay Overview: Hutchinson-Gilford Progeria Syndrome (HGPS) is a pediatric premature aging disease caused by a spontaneous mutation in the lamin A/C (LMNA) gene. The mutation activates a cryptic splice site in the LMNA pre-mRNA which results in production of a pre-lamin A protein that cannot be processed properly. The mutant protein accumulates in the nucleus and negatively affects numerous cellular functions. Correction of the splicing defect in HGPS patient cells using a targeted oligonucleotide (exo11) leads to reversal of the cellular disease phenotypes. To identify small molecule modulators of aberrant LMNA splicing, a homogenous assay was constructed in HeLa cells that used a GFP containing minigene to report on correction of aberrant splicing in lamin A and a RFP (DsRed2) to report on cell viability, uniformity and nonspecific effects on the assay signal. This assay was adapted to laser-scanning microplate cytometry (Acumen, TTP Labtech) where miniaturization of the assay to a 1,536-well plate format was possible. References: Bowen, W. P.; Wylie, P. G. Application of Laser-Scanning Fluorescence Microplate Cytometry in High Content Screening. Assay Drug Dev Technol 2006;4:209-221. Scaffidi P, Misteli T. Reversal of the cellular phenotype in the premature aging disease Hutchinson-Gilford progeria syndrome. Nat.
NCGC Assay Protocol Summary: Reagents/Controls: Stable clones expressing DsRed2 and lamin A-EGFP were generated by Cell and Molecular Technologies in S3 HeLa cells. HeLa cells were prepared for the assay when they were 70-90% confluent. The cells were counted and resuspended in Opti-MEM I (no phenol red; Gibco), 2% FBS, 1% penicillin/ streptomycin (Gibco) at concentration of 120 cells/uL concentration. The suspension was passed through a Falcon basket filter with pore size 40um (Beckton Dickson). Control titrations: column […] 1536-well plate contained a sixteen point titration (1:2 dilutions) in duplicate of ancitabine (Sigma: A8598) beginning at 40 uM final concentration. Column 2 contained a sixteen point titration (1:2 dilutions) of cycloheximide beginning at 1.4 mM final concentration. Column 3 contained ancitabine at 40 uM and column 4 contained was the vehicle control (0.5% DMSO final concentration). Assay Steps: 5 uL of HeLa cells were plated in Aurora LoBase black clear bottom (cyclic-olefin polymer) 1536-well plates at a final density of 600 cells/well. Controls and library compounds were added with a 1536-well pin array using the Kalypsys pin-tool. The plates were then incubated for 48 hrs in a cell-culture incubator (37 °C; 5% CO2, 98% humidity). Following incubation the plates were read on the Acumen Explorer using the 488 nm laser. Data was collected on objects between 10 and 100 um in size. Cell objects were defined by a 15 um width x 10 um depth filter. The ratio of the total object intensity in PMT1 (500-530 nm emission; GFP) over PMT3 (575-640 nm emission; RFP) was calculated for analysis. Keywords: NIH Roadmap, MLSCN, MLI, MLSMR, qHTS, NCGC, lamin A, Progeria, RNA splicing.

[1] = measured here: RFP viability control channel
[2] = measured here: GFP splicing reporter channel

| Compound | AC50 [1] | AC50 [2] |
| --- | --- | --- |
| COCCOC(=O)C1=C(C)OC(N)=C(C(=O)OC)C12C(=O)Nc1ccccc12 (stereo not given) | 11.2 µM [rising, single point] | – |
| CCCCCC[C@H]1C(=O)O[C@H](C)[C@H](NC(=O)c2cccc(NC=O)c2O)C(=O)O[C@@H](C)[C@H]1OC(=O)CC(C)C | 0.00224 µM [falling, full curve, poor fit] | 0.000891 µM [falling, full curve, poor fit] |
| Cc1cc(=O)n2[nH]c(C)cc2n1 | 31.6 µM [falling, partial curve, poor fit] | – |
| C[C@H]1CC[C@]2(OC1)O[C@@H]1C[C@@H]3[C@@H]4CC[C@H]5C[C@@H](O)CC[C@]5(C)[C@@H]4CC(=O)[C@@]3(C)[C@H]1[C@@H]2C | 0.00178 µM [falling, full curve, poor fit] | 0.00355 µM [falling, full curve] |
| O=C(O)c1[nH]c(=O)[nH]c(=O)c1F | – | 35.5 µM [rising, single point] |
| CSC(=Nc1ccccc1)c1c(O)n(C)c(=O)n(C)c1=O | 35.5 µM [rising, single point] | 14.1 µM [rising, single point] |
| NC(=O)c1ncn(C2OC(CO)C(O)C2O)n1 (stereo not given) | 14.1 µM [rising, partial curve] | – |
| CN(C)C(Cc1ccccc1)C(=O)c1ccccc1 (stereo not given) | – | 0.158 µM [rising, full curve, poor fit] |
| C[C@H]1CC[C@@]2(NC1)O[C@@H]1C[C@H]3[C@@H]4CC[C@@H]5C[C@@H](O)CC[C@@]5(C)[C@@H]4CC[C@]3(C)[C@@H]1[C@@H]2C | 14.1 µM [falling, single point] | 12.6 µM [falling, single point] |
| CN1CCN(C2=Nc3cc(Cl)ccc3Nc3ccccc32)CC1 | 1.12 µM [rising, partial curve, poor fit] and 11.2 µM [rising, partial curve] | 251 nM [rising, full curve, poor fit] and 3.55 nM [falling, full curve, poor fit] and 10 µM [falling, partial curve, poor fit] |
| COc1cccc(CN2CCCCC2c2cccnc2)c1 (stereo not given) | – | 0.224 µM [rising, full curve, poor fit] |
| c1ccc2sc(SNC3CCCCC3)nc2c1 | – | 0.398 µM [falling, partial curve, poor fit] |
| Cn1c(=O)cc(OCCCC(=O)N2CCC3(CC2)OCCO3)c2ccccc21 | 5.62 µM [rising, single point] | – |
| CC(C)CC(NP(=O)(O)O[C@@H]1O[C@@H](C)[C@H](O)[C@@H](O)[C@H]1O)C(=O)NC(Cc1c[nH]c2ccccc12)C(=O)O (stereo not given in full) | 6.31 µM [falling, single point] | – |
| c1cc2c(c(NC3=NCCN3)c1)CCCC2 | 0.794 µM [falling, full curve, poor fit] | 0.000891 µM [falling, full curve, poor fit] |
| c1ccc2c(c1)[nH]c1cnccc12 | – | 0.00501 µM [falling, full curve, poor fit] |
| CCC(C)n1c(O)c(/C=N/Nc2ccccc2)c(=O)[nH]c1=S (stereo not given) | 35.5 µM [rising, single point] | – |
| CCOC(=O)c1ccc(-n2c(N)c(C(=O)NCC3CCCO3)sc2=S)cc1 (stereo not given) | 12.6 µM [rising, partial curve] | 22.4 µM [rising, single point] |
| O=C1NC(c2cc3ccccc3nc2Cl)Nc2ccccc21 (stereo not given) | 11.2 µM [rising, single point] | 11.2 µM [rising, single point] |
| O=C(Nc1nnc(-c2ccco2)o1)c1cccc2ccccc12 | 25.1 µM [rising, single point] | – |
| O=C(NCc1ccccc1)c1cccc(Nc2nc3ccccc3n3nnnc23)c1 | 2.24 µM [falling, full curve] | 0.1 µM [falling, full curve] |
| O=S1(=O)N(CCN2CC=C(c3c[nH]c4cc(F)ccc34)CC2)c2cccc3c2N1CCC3 | 4.47 µM [falling, full curve, poor fit] | 4.47 µM [falling, full curve, poor fit] |
| CN(C)C(=O)Oc1ccc2ccccc2c1Cl | 35.5 µM [rising, single point] | – |
| N#CC(C#N)=Cc1ccc([N+](=O)[O-])c(O)c1 | 35.5 µM [rising, single point] | 25.1 µM [rising, single point] |

Part of the list above in order of count of non-hydrogen atoms, ascending:

| Compound | AC50 [1] | AC50 [2] |
| --- | --- | --- |
| Cc1cc(=O)n2[nH]c(C)cc2n1 | 31.6 µM [falling, partial curve, poor fit] | – |
| COCCOC(=O)C1=C(C)OC(N)=C(C(=O)OC)C12C(=O)Nc1ccccc12 (stereo not given) | 11.2 µM [rising, single point] | – |
| CCCCCC[C@H]1C(=O)O[C@H](C)[C@H](NC(=O)c2cccc(NC=O)c2O)C(=O)O[C@@H](C)[C@H]1OC(=O)CC(C)C | 0.00224 µM [falling, full curve, poor fit] | 0.000891 µM [falling, full curve, poor fit] |
